Measured values reported in PubChem BioAssay AID540276 (National Center for Advancing Translational Sciences (NCATS), 2011).
Hit rate of the full screen: of about 300,000 compounds, about 5,400 (1.8%) were called active. Inconclusive results, whose numbers are uncertain, are shown with a selection of clear calls. The call rests on the fitted dose curve; tested in HEK293 cells. Potencies of inconclusive entries are doubtful fits and often do not repeat.
On the % scale 0 is the no-effect control and ±100 the full control effect; potency means the concentration at half of the fitted maximal effect.

Test: qHTS for inhibitors of binding or entry into cells for Marburg Virus
Settings: Marburg virus pseudotyped entry inhibition, cell reporter; activity change, negative = inhibition: at 37.8 µM (top of the series) unless noted
In the case of `Cc1noc(C)c1C(=O)OCC(=O)c1cc(C)n(Cc2ccccc2Cl)c1C`, the Potency is reported as inconclusive: 2.06 µM [activator, partial curve].
With `COc1cc(OC)cc(-n2c(=O)c3ccccc3n(Cc3ccccc3C#N)c2=O)c1` the Potency was inconclusive: 17.8 µM [activator, single point].
In the case of `CC(C)(C)CC(=O)Nc1nnc(CCc2ccccc2)s1`, the Potency is reported as inconclusive: 3.55 µM [activator, single point].
For `C=C(CCN1C=C(C(C)=O)C(c2ccccc2)NC1=O)c1ccccc1` (stereo not given), the Potency was inconclusive: 5.31 µM [inhibitor, single point].
With `O=C(CCCn1c(=O)[nH]c2ccc(Br)cc2c1=O)N1CCN(c2cccc(Cl)c2)CC1` the Potency was inconclusive: 10 µM [inhibitor, partial curve, poor fit].
In the case of `CC(=O)NC1=CC(=C[N+](=O)[O-])C=C1O`, the Potency is reported as inconclusive: 12.6 µM [activator, partial curve].
For `Cc1ccc(S(=O)(=O)N2CCOCC2)cc1C(=O)Nc1ccc(N2CCCCCC2)cc1`, the Potency was inconclusive: 0.282 µM [inhibitor, full curve, poor fit].
For `N#CC1=C(N)Oc2cc(O)ccc2C1c1ccc2c(c1)OCO2` (stereo not given), the Potency was “inactive”.
With `COCCn1c(=O)[nH]c2cc(C(=O)Nc3cc(C)cc(C)c3)ccc2c1=O` the Potency was inconclusive: 35.5 µM [inhibitor, single point].
In the case of `COc1ccc(C(=O)C2CCCN(S(=O)(=O)c3ccccc3F)C2)c(C)c1` (stereo not given), the Potency is reported as inconclusive: 35.5 µM [inhibitor, single point].
With `O=S(=O)(c1ccc(Br)cc1)c1nc(-c2ccccc2)oc1N1CCOCC1` the Potency was inconclusive: 28.2 µM [inhibitor, single point].
With `C/C(=N\NC(=O)c1ccc(OC2CCCC2)cc1)c1ccc(O)cc1` the Potency was “inactive”.
In the case of `COc1ccc(Nc2nc3ccc(OC)cc3s2)cc1`, the Potency is reported as “inactive”.
With `COc1cc(/C=N/NC(=O)CC2(C)OCCCO2)ccc1OCc1ccc(Cl)cc1Cl` the Potency was inconclusive: 35.5 µM [inhibitor, single point].
With `O=C(C1=C(O)C(=O)N(CCN2CCOCC2)C1c1ccccc1)c1cccs1` (stereo not given) the Potency was “inactive”.
For `C/C(=N\Nc1nc2ccc(Cl)cc2o1)c1ccccc1`, the Potency was inconclusive: 11.2 µM [activator, partial curve, poor fit].
For `Nc1cccc2c1C(=O)N(C(=O)/C=C/c1cccc(F)c1)C2=O`, the Potency was inconclusive: 12.6 µM [inhibitor, partial curve, poor fit].
With `Cc1ccc(C)c(C(=O)n2cnnc2N)c1` the Potency was inconclusive: 0.355 µM [inhibitor, full curve, poor fit].
For `COc1ccc(NC(=S)NC2CCCCCC2)c(OC)c1`, the Potency was “inactive”.
With `COc1ccc(/C=C/C(=O)NC2CCN(Cc3ccccc3)CC2)cc1OC` the Potency was inconclusive: 3.16 µM [inhibitor, partial curve, poor fit].
With `CCCC[C@]12Cc3cc(C#N)ccc3[C@H](O1)c1c(c3cc(F)ccc3oc1=O)O2` the Potency was “inactive”.
In the case of `CC(C)(C)OC(=O)N1CCC(NC(=O)c2[nH]cnc2C(=O)Nc2ccc(Cl)cc2)CC1`, the Potency is reported as “inactive”.
For `O=C1CC(N2CCOCC2)C(=O)N1c1cc(Cl)cc(Cl)c1` (stereo not given), the Potency was “inactive”.
With `Cc1nnc(SCC(=O)c2cc(C)n(C3CC3)c2C)s1` the Potency was inconclusive: 35.5 µM [inhibitor, single point].
In the case of `Oc1c(C(c2ccccn2)N2CCOCC2)ccc2cccnc12` (stereo not given), the Potency is reported as inconclusive: 8.2 µM [inhibitor, partial curve].
For `CC1CC(C)CN(C(=O)/C(=C\c2ccccc2)c2ccccc2)C1` (stereo not given), the Potency was inconclusive: 8.91 µM [inhibitor, partial curve, poor fit].
For `c1coc(CNc2ncnc3ccccc23)c1`, the Potency was inconclusive: 1.78 µM [inhibitor, full curve, poor fit].
In the case of `CCCCc1ccc(N/C(N)=N/c2nc(C)cc(C)n2)cc1`, the Potency is reported as inconclusive: 8.91 µM [inhibitor, partial curve, poor fit].
With `O=C(Oc1ccc(Br)cc1C(=S)N1CCOCC1)c1ccccc1` the Potency was inconclusive: 14.1 µM [inhibitor, single point].
With `COC(=O)CNC(c1ccccc1Cl)c1cc(Br)ccc1NC(=O)CCN1CCOCC1` (stereo not given) the Potency was inconclusive: 2.82 µM [inhibitor, partial curve, poor fit].
With `COc1cccc(OC)c1C(=O)NC(=S)Nc1cccc(NC(=O)c2ccco2)c1` the Potency was inconclusive: 11.2 µM [inhibitor, partial curve].
With `O=C(NCc1ccccc1)c1cccc(COc2ccc3c(c2)CCC3)c1` the Potency was inconclusive: 2.82 µM [inhibitor, full curve, poor fit].
For `O=C(O)c1cn(-c2ccc(F)cc2)c2cc(Cl)c(F)cc2c1=O`, the Potency was “inactive”.
In the case of `CC(=C/C(=O)O)/C=C/c1ccc(Cl)o1`, the Potency is reported as “inactive”.
In the case of `COc1ccccc1NC(=O)CSc1nc(O)cc(=O)n1C`, the Potency is reported as “inactive”.
With `COc1ccc(/C=N\n2nnc3ccccc32)cc1` the Potency was active: 2 µM.
With `COc1ccccc1NC(=O)CCCc1c[nH]c2ccccc12` the Potency was inconclusive: 6.31 µM [inhibitor, partial curve, poor fit].
For `O=C(Nc1sc2c(c1C(=O)O)CCC2)c1cccs1`, the Potency was inconclusive: 12.6 µM [inhibitor, single point].
With `COCCn1c(SCC(=O)Nc2ccccc2C)nc2c(oc3ccccc32)c1=O` the Potency was inconclusive: 3.16 µM [inhibitor, single point].
With `COc1ccc(C2CC(=O)N3CN(C4CCCCC4)CSC3=C2C#N)c(OC)c1` (stereo not given) the Potency was “inactive”.
With `O=C(CN1C(=O)c2ccccc2C1=O)OC(C(=O)c1ccc(Cl)cc1)c1ccccc1` (stereo not given) the Potency was “inactive”.
With `O=C(NCc1cccnc1)c1nn(-c2ccc(Cl)cc2)nc1CO` the Potency was inconclusive: 7.08 µM [inhibitor, full curve, poor fit].
In the case of `Cc1ccc(S(=O)(=O)Oc2ccccc2)cc1`, the Potency is reported as “inactive”.
With `CCc1ccc(OCc2nnc(-c3ccccc3Br)o2)cc1` the Potency was inconclusive: 1.26 µM [activator, single point].
In the case of `CCC(=O)N1C(=O)CCN(C(C)=O)c2ccccc21`, the activity change, negative = inhibition is reported as inconclusive: 6.42% [activator].
